Reference: PubChem BioAssay AID720505 (Drosophila RNAi Screening Center, 2013)

Purpose: 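Knock-downs that reduce calcium influx once internal stores are emptied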 (primary screen)
Cell system: Drosophila S2R+ cells
Knock-down reagent: long dsRNA against Drosophila genes
Treatment: thapsigargin (2 µM) in calcium-free buffer to empty internal stores, then 2 mM calcium added back
Read-out: 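Stores emptied by 2 µM thapsigargin without calcium, then 2 mM calcium re-added; fluo-4 fluorescence followed by FLIPR in 384-well plates, per-well averaged endpoint, raw; two screen passes, some wells retested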
Scale: calcium signal and retest calcium signal: higher = more calcium entry after store depletion
Active means: 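Knock-downs counted as hits when calcium entry dropped relative to STIM1 positive and Rho1 negative controls present on each plate; roughly 1500 genes called, with reductions of differing size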
Calls: active = called as lowering calcium entry; inactive = not called
In all, the deposit lists about 20,000 reagents; this is an unselected part of those with a known target gene and a result. In the full data, about 2,100 (10%) got an active call. 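Raw plate signals without normalisation; calls rest on control-based scores that were not deposited; replicate 2 separates called from uncalled poorly.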 Not stated in the record: the amount of reagent, the time to read-out.

For Doc2 (Dorsocross2) [DRSC22716], the values are calcium signal, replicate 1 = 137; calcium signal, replicate 2 = 206; inactive.
For ry (rosy) [DRSC17048], the values are calcium signal, replicate 1 = 123; calcium signal, replicate 2 = 80.5; inactive.
gw (gawky) [DRSC17135] scored calcium signal, replicate 1 = 139; calcium signal, replicate 2 = 118; inactive.
After knock-down of gw (gawky) [DRSC17160], the record shows calcium signal, replicate 1 = 143; calcium signal, replicate 2 = 218; inactive.
Eaf (ELL-associated factor) [DRSC05050] scored calcium signal, replicate 1 = 118; calcium signal, replicate 2 = 91.7; inactive.
After knock-down of Eaf (ELL-associated factor) [DRSC06052] the results were calcium signal, replicate 1 = 213; calcium signal, replicate 2 = 77.1; inactive.
For Eaf (ELL-associated factor) [DRSC22028], the entry reads calcium signal, replicate 1 = 92.9; calcium signal, replicate 2 = 166; inactive.
For Gbs-76A (Glycogen binding subunit 76A) [DRSC11081], the values are calcium signal, replicate 1 = 101; calcium signal, replicate 2 = 114; inactive.
For CG11159 [DRSC06050], the entry reads calcium signal, replicate 1 = 88.9; calcium signal, replicate 2 = 114; inactive.
With knock-down of mRpL46 (mitochondrial ribosomal protein L46) [DRSC08391] the results were calcium signal, replicate 1 = 78.8; calcium signal, replicate 2 = 101; inactive.
For Acp62F (Accessory gland protein 62F) [DRSC08136], the values are calcium signal, replicate 1 = 79.8; calcium signal, replicate 2 = 94.3; inactive.
ttm2 (tiny tim 2) [DRSC08268] scored calcium signal, replicate 1 = 92.6; calcium signal, replicate 2 = 62.7; inactive.
Silencing of CG11839 [DRSC14398] came out at: calcium signal, replicate 1 = 268; calcium signal, replicate 2 = 143; inactive.
Silencing of CG18539 [DRSC06766] gave: calcium signal, replicate 1 = 231; calcium signal, replicate 2 = 194; inactive.
After knock-down of unc-4 [DRSC20381] the results were calcium signal, replicate 1 = 84.9; calcium signal, replicate 2 = 90.9; retest calcium signal, replicate 1 = 8833; retest calcium signal, replicate 2 = 144; inactive.
Knock-down of unc-4 [DRSC22074] resulted in: calcium signal, replicate 1 = 109; calcium signal, replicate 2 = 289; inactive.
After knock-down of etaTry (etaTrypsin) [DRSC07613], the record shows calcium signal, replicate 1 = 135; calcium signal, replicate 2 = 214; inactive.
For CG7653 [DRSC01886], the values are calcium signal, replicate 1 = 139; calcium signal, replicate 2 = 115; inactive.
Depletion of Pex11ab (Peroxin 11a/b) [DRSC07145] came out at: calcium signal, replicate 1 = 134; calcium signal, replicate 2 = 143; inactive.
Depletion of pzg (putzig) [DRSC11848] gave: calcium signal, replicate 1 = 66.3; calcium signal, replicate 2 = 102; active.
CR43105 (pseudo) [DRSC05547] scored calcium signal, replicate 1 = 126; calcium signal, replicate 2 = 125; inactive.
ND-MWFE (NADH dehydrogenase (ubiquinone) MWFE subunit) [DRSC06364] showed calcium signal, replicate 1 = 119; calcium signal, replicate 2 = 155; inactive.
Sbat (Sabbat) [DRSC00160] scored calcium signal, replicate 1 = 74.2; calcium signal, replicate 2 = 176; inactive.
ex (expanded) [DRSC00817] showed calcium signal, replicate 1 = 84.5; calcium signal, replicate 2 = 212; inactive.
Knock-down of CG17211 [DRSC02587] came out at: calcium signal, replicate 1 = 116; calcium signal, replicate 2 = 96.1; inactive.
Knock-down of Sps1 (Selenophosphate synthetase 1) [DRSC07549] came out at: calcium signal, replicate 1 = 189; calcium signal, replicate 2 = 178; inactive.
CG16799 [DRSC06626] showed calcium signal, replicate 1 = 134; calcium signal, replicate 2 = 128; inactive.
With knock-down of CG16799 [DRSC21553], the screen gave calcium signal, replicate 1 = 135; calcium signal, replicate 2 = 69.4; inactive.
